{"source": "paper PMC10558514", "target": "T1, FLAG-CTIF (UniProt O43310)", "T1 sequence": "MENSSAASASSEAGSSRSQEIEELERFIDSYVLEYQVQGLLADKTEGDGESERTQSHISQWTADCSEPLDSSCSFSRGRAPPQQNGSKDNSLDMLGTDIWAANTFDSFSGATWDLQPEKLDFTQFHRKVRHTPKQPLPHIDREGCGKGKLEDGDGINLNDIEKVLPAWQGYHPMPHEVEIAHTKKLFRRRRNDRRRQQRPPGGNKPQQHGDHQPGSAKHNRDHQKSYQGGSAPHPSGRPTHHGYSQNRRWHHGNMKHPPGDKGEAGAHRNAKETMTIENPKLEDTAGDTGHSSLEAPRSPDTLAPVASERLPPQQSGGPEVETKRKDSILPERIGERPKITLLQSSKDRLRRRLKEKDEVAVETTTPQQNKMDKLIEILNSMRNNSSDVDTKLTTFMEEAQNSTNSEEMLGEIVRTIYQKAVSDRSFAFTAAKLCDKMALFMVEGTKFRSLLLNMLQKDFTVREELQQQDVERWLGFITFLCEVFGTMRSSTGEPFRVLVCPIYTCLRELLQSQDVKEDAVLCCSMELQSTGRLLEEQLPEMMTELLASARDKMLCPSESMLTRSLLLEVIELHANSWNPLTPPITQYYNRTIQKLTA", "test": "co-IP; IP of FLAG-CTIF with α-FLAG antibody from HEK293T extracts, western blot; cells undepleted or depleted of YTHDF2, with or without MG132 (Supplementary Fig. 3a, Fig. 8b)", "note": "Results are given in words; binding and its absence hold for the method and conditions named. Binding seen in cells or lysates may run through a third protein. Binding calls can cover weak binding; strength is not graded here. Where a sequence is shown, tags or fusion partners need not be part of it."}
{"substance": "dynein motor protein (human (endogenous in HEK293T))", "values": [{"measurement": "binding", "result": "binds"}]}
